Measurements reported in PMC5430717.
Results are given in words; binding and its absence hold for the method and conditions named. Binding seen in cells or lysates may run through a third protein. Some entries that bind do so weakly or less than the wild type.

Chains of the proteins cited; added tags and fusions are not shown.
UniProt P42224: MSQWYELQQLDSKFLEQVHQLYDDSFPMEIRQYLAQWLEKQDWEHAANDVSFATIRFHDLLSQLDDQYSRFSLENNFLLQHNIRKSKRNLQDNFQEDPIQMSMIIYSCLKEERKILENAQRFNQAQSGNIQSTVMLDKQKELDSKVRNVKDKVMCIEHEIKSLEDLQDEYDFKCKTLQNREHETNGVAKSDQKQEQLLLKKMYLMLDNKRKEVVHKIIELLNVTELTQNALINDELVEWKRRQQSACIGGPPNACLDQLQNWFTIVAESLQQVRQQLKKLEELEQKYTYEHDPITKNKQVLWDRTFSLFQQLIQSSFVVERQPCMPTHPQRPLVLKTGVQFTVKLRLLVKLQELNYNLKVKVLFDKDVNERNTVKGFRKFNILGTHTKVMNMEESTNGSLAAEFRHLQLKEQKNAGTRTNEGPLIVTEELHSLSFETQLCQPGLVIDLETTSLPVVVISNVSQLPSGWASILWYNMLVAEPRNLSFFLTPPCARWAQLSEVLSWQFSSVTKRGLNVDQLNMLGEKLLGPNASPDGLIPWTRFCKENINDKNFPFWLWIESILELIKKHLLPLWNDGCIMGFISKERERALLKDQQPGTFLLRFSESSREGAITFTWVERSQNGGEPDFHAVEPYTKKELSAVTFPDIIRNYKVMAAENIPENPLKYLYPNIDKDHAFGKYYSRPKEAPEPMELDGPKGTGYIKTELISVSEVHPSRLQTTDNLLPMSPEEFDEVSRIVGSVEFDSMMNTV
UniProt O14508: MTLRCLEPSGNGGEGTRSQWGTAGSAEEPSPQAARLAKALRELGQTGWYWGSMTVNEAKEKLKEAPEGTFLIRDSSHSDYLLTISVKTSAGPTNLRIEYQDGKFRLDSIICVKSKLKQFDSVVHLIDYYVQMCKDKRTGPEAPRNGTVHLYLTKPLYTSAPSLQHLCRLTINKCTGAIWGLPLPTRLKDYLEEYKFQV

T1: NOD1 (UniProt Q9Y239)
T1 sequence: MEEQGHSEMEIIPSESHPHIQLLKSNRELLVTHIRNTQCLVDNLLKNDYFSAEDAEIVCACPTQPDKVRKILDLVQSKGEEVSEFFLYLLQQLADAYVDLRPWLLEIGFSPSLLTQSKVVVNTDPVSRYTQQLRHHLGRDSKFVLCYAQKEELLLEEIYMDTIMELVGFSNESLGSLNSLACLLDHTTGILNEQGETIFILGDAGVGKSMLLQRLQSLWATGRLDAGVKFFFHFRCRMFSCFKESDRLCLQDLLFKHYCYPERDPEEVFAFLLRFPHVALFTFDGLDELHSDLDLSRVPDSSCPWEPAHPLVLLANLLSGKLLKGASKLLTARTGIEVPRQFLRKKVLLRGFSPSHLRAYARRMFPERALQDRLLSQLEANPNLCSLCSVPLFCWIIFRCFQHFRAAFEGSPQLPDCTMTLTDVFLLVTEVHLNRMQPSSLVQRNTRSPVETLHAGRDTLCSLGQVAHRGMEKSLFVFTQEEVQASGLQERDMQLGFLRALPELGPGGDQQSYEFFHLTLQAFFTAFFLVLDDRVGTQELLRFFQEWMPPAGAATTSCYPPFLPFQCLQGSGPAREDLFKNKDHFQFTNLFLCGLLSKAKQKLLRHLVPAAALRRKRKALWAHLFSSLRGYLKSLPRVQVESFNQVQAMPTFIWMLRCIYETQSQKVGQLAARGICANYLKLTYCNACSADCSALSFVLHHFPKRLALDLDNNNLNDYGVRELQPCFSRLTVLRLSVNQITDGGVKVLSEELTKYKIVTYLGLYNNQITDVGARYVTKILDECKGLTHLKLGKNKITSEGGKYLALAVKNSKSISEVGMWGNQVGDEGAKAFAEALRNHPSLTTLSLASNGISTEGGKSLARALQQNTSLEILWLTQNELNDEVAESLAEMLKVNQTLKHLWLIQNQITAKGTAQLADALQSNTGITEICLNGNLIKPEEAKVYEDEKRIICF

T2: Slingshot Homolog 1 (SSH1) (UniProt Q8WYL5)
T2 sequence: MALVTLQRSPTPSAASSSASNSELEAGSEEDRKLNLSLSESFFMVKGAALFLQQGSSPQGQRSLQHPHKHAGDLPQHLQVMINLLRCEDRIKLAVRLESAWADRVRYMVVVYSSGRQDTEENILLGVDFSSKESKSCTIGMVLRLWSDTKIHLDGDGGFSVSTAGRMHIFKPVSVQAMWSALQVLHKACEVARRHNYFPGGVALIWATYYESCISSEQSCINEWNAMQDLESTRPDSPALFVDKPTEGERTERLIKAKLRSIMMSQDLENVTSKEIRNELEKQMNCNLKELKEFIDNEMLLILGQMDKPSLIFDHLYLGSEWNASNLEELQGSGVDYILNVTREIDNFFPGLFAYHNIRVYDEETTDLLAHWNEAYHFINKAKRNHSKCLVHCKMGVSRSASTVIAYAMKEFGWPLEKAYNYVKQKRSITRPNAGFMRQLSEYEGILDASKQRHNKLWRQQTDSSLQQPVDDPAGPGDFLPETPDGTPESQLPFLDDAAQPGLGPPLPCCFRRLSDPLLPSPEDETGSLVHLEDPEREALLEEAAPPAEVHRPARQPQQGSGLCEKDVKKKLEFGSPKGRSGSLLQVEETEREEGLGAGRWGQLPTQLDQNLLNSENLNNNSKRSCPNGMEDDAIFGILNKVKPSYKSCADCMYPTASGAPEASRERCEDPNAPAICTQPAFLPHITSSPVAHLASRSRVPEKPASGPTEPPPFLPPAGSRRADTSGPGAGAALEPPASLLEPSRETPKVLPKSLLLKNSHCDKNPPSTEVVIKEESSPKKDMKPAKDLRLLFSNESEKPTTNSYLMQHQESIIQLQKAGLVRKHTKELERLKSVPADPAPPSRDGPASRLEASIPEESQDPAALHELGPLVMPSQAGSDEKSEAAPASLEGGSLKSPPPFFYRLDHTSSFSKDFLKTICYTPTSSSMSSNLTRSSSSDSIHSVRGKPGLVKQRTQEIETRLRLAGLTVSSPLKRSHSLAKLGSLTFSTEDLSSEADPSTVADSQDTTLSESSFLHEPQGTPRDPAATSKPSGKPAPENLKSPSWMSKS

B1: NOD1 (protein, UniProt Q9Y239 1-953)
chain: T1 sequence
B2: Slingshot Homolog 1 (SSH1) (enzyme, UniProt Q8WYL5 1-1049)
chain: T2 sequence

How the values were obtained:
[1] = biological target: T1, NOD1; assay: co-IP; co-immunoprecipitation; cells, bait and antibodies not told in the main text (Supplementary Fig. S5)
[2] = biological target: T2, Slingshot Homolog 1 (SSH1); assay: as above
[3] = biological target: STAT1 (human (endogenous in HEK293T)) (UniProt P42224); assay: co-IP; co-immunoprecipitation in HEK293T cells; endogenous STAT1; bait and antibodies not told in the main text (Supplementary Fig. S4)

Molecule	binding [1]	binding [2]	binding [3]
SOCS2 (from UniProt O14508 1-198)	binds	binds	
B1			no binding
B2			no binding
